Measurements reported in PubChem BioAssay AID652259 (Drosophila RNAi Screening Center, 2013).

Aim: 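Knock-downs that push a Wingless-driven reporter up or down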 (primary screen)
System: Drosophila clone 8 imaginal disc epithelial cells
Knock-down reagent: long dsRNA against Drosophila genes
Challenge: pathway stimulated by co-transfected Wingless expression plasmid
Measurement: 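Dual luciferase reads per well after Wingless plasmid stimulation: reporter firefly light and Renilla control light; activity is firefly divided by Renilla, a ratio not deposited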
Reading the numbers: firefly reporter light: higher = more Wg reporter light, before normalisation; Renilla control light: higher = more transfected or surviving cells
Active means: 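Strong candidates differ from their plate mean by at least two out of four per-plate statistical tests; weak candidates meet just one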
Meaning of the calls: active = candidate regulator (raises or lowers reporter); inactive = not a candidate
The deposit covers about 22,000 reagents; this is a random part of those that have a named target and a result. In the full data, 233 (1.1%) were called active. 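Light values are raw, unnormalised plate reads; the ratio scores behind the reporter calls were not deposited.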 Unmarked entries are inactive. A plus sign joins genes that one reagent is predicted to hit. Not stated in the record: the amount of reagent, the time to read-out, the dose of the treatment.

Gene | DRSC id | reporter change call, replicate 1 | firefly reporter light, replicate 1 | firefly reporter light, replicate 2 | Renilla control light, replicate 1 | Renilla control light, replicate 2
CG7367 (GeneID 34094) | DRSC03049 | – | 1773 | 6216 | 823 | 3446
Arpc3B (GeneID 32696) | DRSC20126 | – | 13521 | – | 6921 | –
Rrp5 (GeneID 42899) | DRSC15862 | – | 2230 | 4041 | 1096 | 1769
CG3919 (GeneID 39582) | DRSC10389 | – | 7530 | – | 3808 | –
Eip74EF (GeneID 39962) | DRSC10613 | Wg reporter activity raised (active) | 5479 | – | 428 | –
Eip74EF (GeneID 39962) | DRSC11160 | – | 5062 | – | 1873 | –
Twdlbeta (GeneID 36265) | DRSC07310 | – | 5849 | – | 2112 | –
viaf (GeneID 39364) | DRSC10326 | – | 4849 | – | 2332 | –
ome (GeneID 44297) | DRSC09322 | – | 2403 | – | 1337 | –
ome (GeneID 44297) | DRSC10282 | – | 5043 | – | 2000 | –
ome (GeneID 44297) | DRSC11380 | – | 5472 | – | 2179 | –
Bmcp (GeneID 39322) | DRSC10808 | – | 8889 | – | 3491 | –
CR33315 (GeneID 3771801) | DRSC22947 | – | 6.12e5 | 6.14e5 | 2.77e5 | 1.09e5
Skadu (GeneID 8673966) | DRSC01490 | – | 22747 | – | 9815 | –
Keap1 (GeneID 42062) | DRSC15528 | – | 3942 | 9337 | 1024 | 1993
CG10859 (GeneID 34756) | DRSC02110 | – | 5985 | – | 2032 | –
Grip84 (GeneID 32946) | DRSC20248 | – | 1994 | 4343 | 583 | 1003

Look-ups from above.
Under “Renilla control light, replicate 1”, Bmcp (GeneID 39322) [DRSC10808] shows 3491
Under “Renilla control light, replicate 1”, Grip84 (GeneID 32946) [DRSC20248] has 583
For “firefly reporter light, replicate 1”, Arpc3B (GeneID 32696) [DRSC20126] is entered as 13521
Value of Rrp5 (GeneID 42899) [DRSC15862] under “Renilla control light, replicate 2”: 1769
Under “Renilla control light, replicate 1”, Skadu (GeneID 8673966) [DRSC01490] shows 9815

More records follow:
Gene | DRSC id | reporter change call, replicate 1 | firefly reporter light, replicate 1 | firefly reporter light, replicate 2 | Renilla control light, replicate 1 | Renilla control light, replicate 2
mute (GeneID 2768848) | DRSC06562 | Wg reporter activity raised (active) | 12186 | – | 1081 | –
mute (GeneID 2768848) | DRSC22931 | – | 7.26e5 | 8.05e5 | 1.71e5 | 2.11e5
CG12538 (GeneID 41658) | DRSC14527 | – | 14058 | – | 1952 | –
CG7582 (GeneID 43492) | DRSC16261 | – | 6058 | – | 2468 | –
CG11857 (GeneID 43042) | DRSC14411 | – | 13560 | – | 13308 | –
Cdc7 (GeneID 31598) | DRSC18428 | – | 30809 | 7.18e5 | 16738 | 2.37e5
Cdc7 (GeneID 31598) | DRSC18429 | – | 19756 | – | 11939 | –
Cdc7 (GeneID 31598) | DRSC22133 | – | 9.80e5 | 9.52e5 | 4.33e5 | 5.09e5
yrt (GeneID 41656) | DRSC16559 | – | 7513 | – | 2758 | –
ana2 (GeneID 35878) | DRSC05952 | – | 8752 | – | 2720 | –
CG43052 (GeneID 12798214) | DRSC03059 | – | 3490 | 10002 | 1432 | 4080
Hacd2 (GeneID 34762) | DRSC03181 | – | 3360 | 6201 | 1538 | 3308
CG12609 (GeneID 32862) | DRSC19473 | – | 20466 | – | 10809 | –
CG31460 (GeneID 318747) | DRSC14370 | – | 5765 | – | 2152 | –
Ttc26 (GeneID 41905) | DRSC15591 | – | 3573 | – | 1856 | –
CG42458 (GeneID 2768945) | DRSC08881 | – | 2131 | – | 573 | –
CG42458 (GeneID 2768945) | DRSC10335 | – | 5376 | – | 726 | –
Strump (GeneID 39766) | DRSC09872 | – | 6955 | – | 2528 | –
Wdr33 (GeneID 40698) | DRSC12162 | – | 5612 | – | 2807 | –
nau (GeneID 42799) | DRSC17011 | – | 12275 | – | 9285 | –
Ccs (GeneID 46035) | DRSC06692 | – | 2459 | 5369 | 810 | 1959
CG6220 (GeneID 36520) | DRSC06969 | Wg reporter activity raised | 5942 | – | 2582 | –
Dyro (GeneID 39271) | DRSC10598 | – | 8742 | – | 1702 | –
Grd (GeneID 39984) | DRSC11178 | – | 4195 | – | 2272 | –
CG43091 (GeneID 12798514) | DRSC13571 | – | 3040 | – | 1140 | –
CG30339 (GeneID 246549) | DRSC05168 | – | 19396 | – | 9877 | –
Asator (GeneID 43794) | DRSC17136 | – | 17849 | – | 13462 | –
CG15020 (GeneID 38544) | DRSC08474 | – | 1431 | 6608 | 1293 | 2864
Cks85A (GeneID 41034) | DRSC16562 | – | 12868 | – | 3510 | –
Trpml + CG42638 | DRSC11032 | – | 2771 | – | 1936 | –
Hsp60A (GeneID 32045) | DRSC20254 | – | 6987 | 10893 | 1353 | 3001
Ir41a (GeneID 2768714) | DRSC04730 | – | 18889 | – | 8535 | –
Ir41a (GeneID 2768714) | DRSC04875 | – | 3395 | 7928 | 425 | 2012
